In paper PMC8384837:
Some of the results follow. Construct or isoform of the protein are uncertain.

The sequences below were run against T1, PUM1 PUF domain R5-PHQ R6-SWD C1007P + R1008H + N1043S + Y1044W + Q1047D (UniProt Q14671). Details: yeast three-hybrid, YBZ-1, SC-Leu-His + 0.5 mM 3-AT, 4 days.
T1 sequence: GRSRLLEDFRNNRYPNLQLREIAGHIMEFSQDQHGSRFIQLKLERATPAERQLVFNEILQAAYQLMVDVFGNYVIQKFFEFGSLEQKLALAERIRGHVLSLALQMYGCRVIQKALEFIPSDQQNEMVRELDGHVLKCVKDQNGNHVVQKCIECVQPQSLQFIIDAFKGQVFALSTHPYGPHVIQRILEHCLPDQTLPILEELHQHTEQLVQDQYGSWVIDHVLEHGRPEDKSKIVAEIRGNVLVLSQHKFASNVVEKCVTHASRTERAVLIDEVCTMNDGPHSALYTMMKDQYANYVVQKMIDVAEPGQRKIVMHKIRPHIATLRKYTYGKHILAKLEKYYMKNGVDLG

| Sequence | binding signal (log2 enrichment (interaction score)) |
| --- | --- |
| GGCUAGAACUAGUGGAUCCCCCGGCGCCCGGCGGCUCGAGCCCGGGUAAGUUGCUAUAGUCUGCAUGCCGCCGGGCGCCAUGCCUGCAGGUCGACUCUAGAAAACAUG | -7.82 |
| GGCUAGAACUAGUGGAUCCCCCGGCGCCCGGCGGCUCGAGCCCGGGUAAGUGGACAGAGUCUGCAUGCCGCCGGGCGCCAUGCCUGCAGGUCGACUCUAGAAAACAUG | -8.13 |
| GGCUAGAACUAGUGGAUCCCCCGGCGCCCGGCGGCUCGAGCCCGGGUAAGCAUAAUUAGUCUGCAUGCCGCCGGGCGCCAUGCCUGCAGGUCGACUCUAGAAAACAUG | < -7.46 |
| GGCUAGAACUAGUGGAUCCCCCGGCGCCCGGCGGCUCGAGCCCGGGUAAGUGGUCGUAGUCUGCAUGCCGCCGGGCGCCAUGCCUGCAGGUCGACUCUAGAAAACAUG | -8.49 |
| GGCUAGAACUAGUGGAUCCCCCGGCGCCCGGCGGCUCGAGCCCGGGUAAGUUAAAUGAGUCUGCAUGCCGCCGGGCGCCAUGCCUGCAGGUCGACUCUAGAAAACAUG | -8 |
| GGCUAGAACUAGUGGAUCCCCCGGCGCCCGGCGGCUCGAGCCCGGGUAAGUUUAAAACGUCUGCAUGCCGCCGGGCGCCAUGCCUGCAGGUCGACUCUAGAAAACAUG | -8.38 |
| GGCUAGAACUAGUGGAUCCCCCGGCGCCCGGCGGCUCGAGCCCGGGUAAGUUGCGAAAGUCUGCAUGCCGCCGGGCGCCAUGCCUGCAGGUCGACUCUAGAAAACAUG | < -8.45 |
| GGCUAGAACUAGUGGAUCCCCCGGCGCCCGGCGGCUCGAGCCCGGGUAAGGGGCAAAAGUCUGCAUGCCGCCGGGCGCCAUGCCUGCAGGUCGACUCUAGAAAACAUG | < -8.13 |
| GGCUAGAACUAGUGGAUCCCCCGGCGCCCGGCGGCUCGAGCCCGGGUAAGUUGACAUUGUCUGCAUGCCGCCGGGCGCCAUGCCUGCAGGUCGACUCUAGAAAACAUG | -6.65 |
| GGCUAGAACUAGUGGAUCCCCCGGCGCCCGGCGGCUCGAGCCCGGGUAAGCAGAUAUAGUCUGCAUGCCGCCGGGCGCCAUGCCUGCAGGUCGACUCUAGAAAACAUG | < -7.42 |
| GGCUAGAACUAGUGGAUCCCCCGGCGCCCGGCGGCUCGAGCCCGGGUAAGUGUAGGUAGUCUGCAUGCCGCCGGGCGCCAUGCCUGCAGGUCGACUCUAGAAAACAUG | < -7.61 |

Looked up above:
Value of GGCUAGAACUAGUGGAUCCCCCGGCGCCCGGCGGCUCGAGCCCGGGUAAGUUGCGAAAGUCUGCAUGCCGCCGGGCGCCAUGCCUGCAGGUCGACUCUAGAAAACAUG under binding signal (log2 enrichment (interaction score)): < -8.45
Value of GGCUAGAACUAGUGGAUCCCCCGGCGCCCGGCGGCUCGAGCCCGGGUAAGUUUAAAACGUCUGCAUGCCGCCGGGCGCCAUGCCUGCAGGUCGACUCUAGAAAACAUG under binding signal (log2 enrichment (interaction score)): -8.38
